Laboratory results reported in publication PMC3286403.

Tests used:
[1] = target: His-tagged HIV-1 integrase Y194A (HIV-1); assay: AlphaScreen or HTRF; HTRF; His-IN 80 nM, GST-LEDGF/p75 or GST-TNPO3 5 nM, anti-GST-Europium Cryptate and anti-His-XL665; 25 mM Hepes pH 7.3, 150 mM NaCl, 2 mM MgCl2, 0.1% BSA, 1 mM DTT; read 2 h after incubation; signal as percent of IN WT ΔF; both purified
[2] = target: His6-tagged HIV-1 integrase K188Q (HIV-1); assay: as above

B1: GST-TNPO3 full length (protein, UniProt Q9Y5L0 1-923)
chain: MEGAKPTLQLVYQAVQALYHDPDPSGKERASFWLGELQRSVHAWEISDQLLQIRQDVESCYFAAQTMKMKIQTSFYELPTDSHASLRDSLLTHIQNLKDLSPVIVTQLALAIADLALQMPSWKGCVQTLVEKYSNDVTSLPFLLEILTVLPEEVHSRSLRIGANRRTEIIEDLAFYSSTVVSLLMTCVEKAGTDEKMLMKVFRCLGSWFNLGVLDSNFMANNKLLALLFEVLQQDKTSSNLHEAASDCVCSALYAIENVETNLPLAMQLFQGVLTLETAYHMAVAREDLDKVLNYCRIFTELCETFLEKIVCTPGQGLGDLRTLELLLICAGHPQYEVVEISFNFWYRLGEHLYKTNDEVIHGIFKAYIQRLLHALARHCQLEPDHEGVPEETDDFGEFRMRVSDLVKDLIFLIGSMECFAQLYSTLKEGNPPWEVTEAVLFIMAAIAKSVDPENNPTLVEVLEGVVRLPETVHTAVRYTSIELVGEMSEVVDRNPQFLDPVLGYLMKGLCEKPLASAAAKAIHNICSVCRDHMAQHFNGLLEIARSLDSFLLSPEAAVGLLKGTALVLARLPLDKITECLSELCSVQVMALKKLLSQEPSNGISSDPTVFLDRLAVIFRHTNPIVENGQTHPCQKVIQEIWPVLSETLNKHRADNRIVERCCRCLRFAVRCVGKGSAALLQPLVTQMVNVYHVHQHSCFLYLGSILVDEYGMEEGCRQGLLDMLQALCIPTFQLLEQQNGLQNHPDTVDDLFRLATRFIQRSPVTLLRSQVVIPILQWAIASTTLDHRDANCSVMRFLRDLIHTGVANDHEEDFELRKELIGQVMNQLGQQLVSQLLHTCCFCLPPYTLPDVAEVLWEIMQVDRPTFCRWLENSLKGLPKETTVGAVTVTHKQLTDFHKQVTSAEECKQVCWALRDFTRLFR
Q: What does the source list for B1?
A: binding [1]: binds; binding [2]: binds

No constants are given. Whether binding was seen depends on the method and setting. Binding calls can cover weak binding; strength is not graded here. Tags and fused reporters may be left off the sequences shown.
